# Literature values, collected in paper PMC6151569 (Molecules : A Journal of Synthetic Chemistry and Natural …, 2017).
# Tested on: LPS-stimulated TNF-α release from human whole blood
# Conditions: printed in Figure 1, known inhibitors; cited from earlier work
structure (smiles),measurement,value
C[S+]([O-])c1ccc(-c2nc(-c3ccncc3)c(-c3ccc(F)cc3)[nH]2)cc1 (stereo not shown) [SB203580],IC50,1760 nM
